These are yes or no findings as the source states them, for the method shown.

The target in experiment [1] is Cry35Ab1 (Bacillus thuringiensis strain PS149B1) (UniProt Q939S9). As to the kind of experiment: crystal structure; each protein crystallised alone; one molecule per asymmetric unit; Cry34Ab1 2.15 Å (I422), Cry35Ab1 1.80 Å (P212121); both purified.
Experiment [2] addresses truncated Cry35Ab1 (residues 1-354) (Bacillus thuringiensis strain PS149B1) (UniProt Q939S9). As to the kind of experiment: small angle X-ray scattering (SAXS); each protein alone, 2.07 to 6.86 mg/mL in 20 mM sodium citrate pH 3.3; synchrotron beamline 5-ID-D; envelopes compared with the crystal structures; both purified.
For experiment [3] the target is unchanged. The experiment can be described thus: native MS; native nano-electrospray ion mobility mass spectrometry, each protein alone in 0.1% formic acid (pH 3.0); Cry34Ab1 approximately 12.9 µM, trCry35Ab1 approximately 15.9 µM; drift tube 27°C, nitrogen; both purified.
Experiment [4] concerns the target Cry34Ab1 (Bacillus thuringiensis strain PS149B1) (UniProt Q939T0). As to the kind of experiment: crystal structure; each protein crystallised alone; one molecule per asymmetric unit; Cry34Ab1 2.15 Å (I422), Cry35Ab1 1.80 Å (P212121); both purified.
For experiment [5] the target is unchanged. The experiment can be described thus: small angle X-ray scattering (SAXS); each protein alone, 2.07 to 6.86 mg/mL in 20 mM sodium citrate pH 3.3; synchrotron beamline 5-ID-D; envelopes compared with the crystal structures; both purified.
The target is the same in experiment [6]. The experiment can be described thus: native MS; native nano-electrospray ion mobility mass spectrometry, each protein alone in 0.1% formic acid (pH 3.0); Cry34Ab1 approximately 12.9 µM, trCry35Ab1 approximately 15.9 µM; drift tube 27°C, nitrogen; both purified.

Cry35Ab1 (from UniProt Q939S9 1-383): the binding entry in experiment [1] is listed as “no binding”.

B1: truncated Cry35Ab1 (residues 1-354) (domain or fragment, UniProt Q939S9 1-354)
chain: MLDTNKVYEISNHANGLYAATYLSLDDSGVSLMNKNDDDIDDYNLKWFLFPIDDDQYIITSYAANNCKVWNVNNDKINVSTYSSTNSIQKWQIKANGSSYVIQSDNGKVLTAGTGQALGLIRLTDESSNNPNQQWNLTSVQTIQLPQKPIIDTKLKDYPKYSPTGNIDNGTSPQLMGWTLVPCIMVNDPNIDKNTQIKTTPYYILKKYQYWQRAVGSNVALRPHEKKSYTYEWGTEIDQKTTIINTLGFQINIDSGMKFDIPEVGGGTDEIKTQLNEELKIEYSHETKIMEKYQEQSEIDNPTDQSMNSIGFLTITSLELYRYNGSEIRIMQIQTSDNDTYNVTSYPNHQQALL
Consider B1, for which the binding result in experiment [2] is “no binding (tested: 2.07 to 6.86 mg/mL)”; in experiment [3], “no binding (tested: approximately 15.9 µM)”.

B2: Cry34Ab1 (protein, UniProt Q939T0 1-123)
chain: MSAREVHIDVNNKTGHTLQLEDKTKLDGGRWRTSPTNVANDQIKTFVAESNGFMTGTEGTIYYSINGEAEISLYFDNPFAGSNKYDGHSNKSQYEIITQGGSGNQSHVTYTIQTTSSRYGHKS
For the molecule B2, the binding entry is reported as “no binding” in experiment [4], “no binding (tested: 2.07 to 6.86 mg/mL)” in experiment [5] and “no binding (tested: approximately 12.9 µM)” in experiment [6].

For the origin of these results see publication PMC4229197.
